This is an account of results in PMC10615203, “The 14-3-3 protein OsGF14f interacts with OsbZIP23 and enhances its activity to confer osmotic stress tolerance in rice”.

No signal at the amounts used counts as a negative. At least one verdict rests on a figure or table, not on a statement of the authors. Protein sequences can lack the tags named with them.

The target in this data set is T1, GST-OsbZIP23 (UniProt Q6Z312).
T1 sequence: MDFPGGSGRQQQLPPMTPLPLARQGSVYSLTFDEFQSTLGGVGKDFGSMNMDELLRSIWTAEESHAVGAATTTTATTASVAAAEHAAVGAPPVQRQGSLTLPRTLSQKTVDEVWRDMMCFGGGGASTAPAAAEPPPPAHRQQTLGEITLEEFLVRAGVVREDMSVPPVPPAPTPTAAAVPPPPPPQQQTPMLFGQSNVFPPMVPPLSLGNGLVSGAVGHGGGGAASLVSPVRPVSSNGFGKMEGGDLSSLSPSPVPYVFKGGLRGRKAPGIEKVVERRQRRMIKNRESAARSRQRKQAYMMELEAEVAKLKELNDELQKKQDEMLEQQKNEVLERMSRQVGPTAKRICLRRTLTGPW
Put plainly: EMSA. Conditions: G-box-dependent binding stated, whether mutant was used as probe or competitor not stated; EMSA kit (Viagene) binding buffer (composition not given), room temperature, 20 min; 6% native PAGE; recombinant protein; protein details: GST (N-terminal, pGEX-4T-3). A general note: Mobility shift assays separate free from complexed probe on a gel.

Turning to “TGGCGCCTTGCCTTTTGCCCCCTCCCT (double strand) [OsGF14f promoter mutant probe (GF14fm)]”, the binding result was “no binding”.
